We go through 1 molecule from paper PMC8213729.

Protein sequences, listed by entry. Tags and fused reporters are not part of them.
UniProt P08621: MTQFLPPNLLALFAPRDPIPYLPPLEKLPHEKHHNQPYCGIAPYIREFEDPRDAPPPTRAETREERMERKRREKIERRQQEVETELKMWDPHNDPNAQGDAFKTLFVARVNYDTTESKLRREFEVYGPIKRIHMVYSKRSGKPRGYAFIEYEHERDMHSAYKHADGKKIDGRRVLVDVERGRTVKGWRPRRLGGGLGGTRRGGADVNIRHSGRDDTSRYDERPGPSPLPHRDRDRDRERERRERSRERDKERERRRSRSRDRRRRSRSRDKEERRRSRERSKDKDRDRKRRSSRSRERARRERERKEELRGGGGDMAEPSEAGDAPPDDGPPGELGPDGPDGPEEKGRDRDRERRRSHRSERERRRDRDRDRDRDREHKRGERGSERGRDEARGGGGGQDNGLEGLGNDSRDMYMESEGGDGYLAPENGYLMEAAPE

No constants are given. Whether binding was seen depends on the method and setting. Binding seen in cells or lysates may run through a third protein. Some entries that bind do so weakly or less than the wild type.

The assay has as its target U1 small nuclear ribonucleoprotein 70 kDa (human (endogenous in A549)) (UniProt P08621). Nature of the assay: co-IP; A549 cell lysate (20 mM Tris-HCl pH 8.6, 100 mM NaCl, 20 mM KCl, 1.5 mM MgCl2, 0.5% NP-40); 3 mg total protein rotated with antibodies at 4 °C overnight, captured on Protein A/G agarose, immunoblotting. In general terms: Immunoblotting shows a protein as a band on a membrane.

B1: heterogeneous ribonucleoprotein M (hnRNPM) (protein, UniProt P52272 1-730)
chain: MAAGVEAAAEVAATEIKMEEESGAPGVPSGNGAPGPKGEGERPAQNEKRKEKNIKRGGNRFEPYANPTKRYRAFITNIPFDVKWQSLKDLVKEKVGEVTYVELLMDAEGKSRGCAVVEFKMEESMKKAAEVLNKHSLSGRPLKVKEDPDGEHARRAMQKVMATTGGMGMGPGGPGMITIPPSILNNPNIPNEIIHALQAGRLGSTVFVANLDYKVGWKKLKEVFSMAGVVVRADILEDKDGKSRGIGTVTFEQSIEAVQAISMFNGQLLFDRPMHVKMDERALPKGDFFPPERPQQLPHGLGGIGMGLGPGGQPIDANHLNKGIGMGNIGPAGMGMEGIGFGINKMGGMEGPFGGGMENMGRFGSGMNMGRINEILSNALKRGEIIAKQGGGGGGGSVPGIERMGPGIDRLGGAGMERMGAGLGHGMDRVGSEIERMGLVMDRMGSVERMGSGIERMGPLGLDHMASSIERMGQTMERIGSGVERMGAGMGFGLERMAAPIDRVGQTIERMGSGVERMGPAIERMGLSMERMVPAGMGAGLERMGPVMDRMATGLERMGANNLERMGLERMGANSLERMGLERMGANSLERMGPAMGPALGAGIERMGLAMGGGGGASFDRAIEMERGNFGGSFAGSFGGAGGHAPGVARKACQIFVRNLPFDFTWKMLKDKFNECGHVLYADIKMENGKSKGCGVVKFESPEVAERACRMMNGMKLSGREIDVRIDRNA
As for B1, the binding entry was “binds”.
